Reference: publication PMC7862700
The other results are listed elsewhere or left out. Construct or isoform of the protein are uncertain.

Target: T1, ETV4 (UniProt P43268)
T1 sequence: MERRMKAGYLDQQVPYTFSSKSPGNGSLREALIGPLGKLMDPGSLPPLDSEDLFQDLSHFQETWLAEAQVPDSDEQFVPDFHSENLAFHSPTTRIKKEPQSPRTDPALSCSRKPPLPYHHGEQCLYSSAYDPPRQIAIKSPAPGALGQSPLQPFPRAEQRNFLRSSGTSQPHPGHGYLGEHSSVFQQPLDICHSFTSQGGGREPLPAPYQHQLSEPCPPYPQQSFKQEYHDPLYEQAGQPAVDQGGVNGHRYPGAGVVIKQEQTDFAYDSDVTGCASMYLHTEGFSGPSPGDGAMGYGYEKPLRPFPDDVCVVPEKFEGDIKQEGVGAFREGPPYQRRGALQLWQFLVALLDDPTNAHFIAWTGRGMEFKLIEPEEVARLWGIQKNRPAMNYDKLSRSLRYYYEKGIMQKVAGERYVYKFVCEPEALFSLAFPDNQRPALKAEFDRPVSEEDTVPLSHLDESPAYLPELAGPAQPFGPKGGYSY
Assay: DAPPL (digital affinity profiling via proximity ligation, sequencing)
Conditions: 10 mM Tris-HCl pH 7.5, 50 mM NaCl, 1 mM DTT, 4% glycerol, room temperature, 30 min; GST-TFs on glutathione beads, 16-mer random dsDNA library, 0.1% …; high values mean tight binding; double strand, one strand shown; scale: fold enrichment (6-mer frequency, TF over GST control)

| Sequence | binding signal |
| --- | --- |
| TATTCC | 1.47 |
| TATCCG | 2.67 |
| AATCAT | 1.08 |
| GTACTT | 2.39 |
| AACCTT | 1.3 |
| TGTATC | 1.36 |
| ATCTGT | 1.15 |
| TTTGAG | 1.04 |
| TACCGC | 1.12 |
| ATATAC | 1.12 |
| CTAACG | 1.25 |
| TTAGGG | 1.09 |
| CCGATC | 1.28 |
| TATATA | 1.26 |
| TATGAA | 1.2 |
| GATGAA | 1.17 |
| ATGTCC | 1.59 |
| TCTCTG | 1.61 |
| TACCAA | 1.19 |
| TCACTT | 1.68 |

A second format for part of the listing above:
Sequence,binding signal
ATGTCC,1.59
TCTCTG,1.61

More results

| Sequence | binding signal |
| --- | --- |
| TGGTGT | 1.23 |
| ACCGAC | 1.34 |
| TTACCC | 1.34 |
| GATGCT | 1.21 |
| CTTTCT | 1.46 |
| CGCGAC | 1.12 |
| CACGCC | 1.17 |
| GGTTTT | 1.12 |
| TCATGC | 1.13 |
| CGTTAA | 1.13 |
| CCCATT | 1.32 |
| GTACAT | 1.47 |
| GACCTC | 1.54 |
| TACTAC | 1.21 |
| ATGCAT | 1.2 |
| ACCTAA | 1.18 |
| CGATCG | 1.06 |
| TACCCA | 1.15 |
| TTCTCA | 1.21 |
